# Values of other authors as cited in article PMC4875962 (Clinical Pharmacokinetics, 2015).
# Key:
# [1] = test system: Metabolic CYP enzymes; conditions: cited from earlier work
# [2] = test system: Transporters; conditions: cited from earlier work
Structure (SMILES),Metabolic CYP enzymes inhibited [1],Transporters inhibited [2]
CCCCc1oc2ccccc2c1C(=O)c1cc(I)c(OCCN(CC)CC)c(I)c1 [Amiodarone],"Moderate 2C9; weak 2D6, 3A",P-gp
CC(C)c1c(C(=O)Nc2ccccc2)c(-c2ccccc2)c(-c2ccc(F)cc2)n1CC[C@@H](O)C[C@@H](O)CC(=O)O [Atorvastatin],Weak 3A4,
